# Measurements published in the supplement of paper PMC3334620.
# The full ranking holds about 33,000 sequences; the median of “E-score (-0.5 to 0.5)” is about -0.0014, and the highest 2% start at about 0.25. The list shows a part of the results.
# Target: T1, Cad1 (UniProt P24813)
# T1 sequence: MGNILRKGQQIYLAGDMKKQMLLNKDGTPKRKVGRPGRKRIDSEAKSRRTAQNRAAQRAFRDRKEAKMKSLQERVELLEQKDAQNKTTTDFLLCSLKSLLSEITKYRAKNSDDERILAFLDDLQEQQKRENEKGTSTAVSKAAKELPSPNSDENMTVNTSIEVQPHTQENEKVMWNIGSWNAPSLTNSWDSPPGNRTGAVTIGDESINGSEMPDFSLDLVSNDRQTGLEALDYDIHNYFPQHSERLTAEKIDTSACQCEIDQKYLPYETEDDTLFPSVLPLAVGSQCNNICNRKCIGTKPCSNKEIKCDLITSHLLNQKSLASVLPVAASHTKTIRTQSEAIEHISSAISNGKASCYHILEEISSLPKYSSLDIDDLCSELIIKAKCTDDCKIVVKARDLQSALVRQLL
# Test: PBM E-score (8-mer binding enrichment) (E-score (-0.5 to 0.5)); higher = stronger / more preferred TF binding
# Conditions: protein concentration: 100 nM; construct: GST-full length
# Outline: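 Full-length yeast transcription factors or their DNA-binding domains, GST-tagged and expressed with PURExpress, were applied at about 100-200 nM to universal all-10-mer Agilent arrays. These arrays had been made double-stranded by primer extension on fresh or once-stripped slides. Detection used fluorescent anti-GST, normalisation used masliner, and E-scores for ungapped eight-base words pooled with reverse complements came from the Universal PBM Analysis Suite.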
row,Sequence,PBM E-score
1,ACATAGTC,-0.0356
2,GAGTCGAC,0.235
3,ATAAATCG,0.181
4,AGAAAGTC,-0.0353
5,CAAACCGA,0.0658
6,GTGAAGGA,-0.0964
7,CACAGCCC,-0.129
8,AAAAATTT,0.269
9,GCAAAGAA,0.0155
10,ACGAAAAT,0.189
11,ATGAACAC,0.0691
12,GAGCGAGC,0.0994
13,GCTTCGCA,-0.109
14,AACAGGGG,-0.0212
15,ATACGATG,0.0803
16,AGGGCAAG,-0.0578
17,ACTTCAAG,-0.086
18,ACTGTCTA,0.00817
19,ACGTATGG,-0.133
20,TCGTCTAA,-0.0389
21,CCGGGATC,0.0959
22,GACTCCTC,-0.0684
23,AGAGGCCA,-0.285
24,AGTGCGAG,-0.0178
25,ATAGTCTG,0.0633

# In a second layout: results already given
row | Sequence | PBM E-score
10 | ACGAAAAT | 0.189
11 | ATGAACAC | 0.0691
12 | GAGCGAGC | 0.0994
13 | GCTTCGCA | -0.109

# (list continues)

row,Sequence,PBM E-score
1,CGTATCTC,-0.00599
2,TGTCCCAA,-0.0531
3,AGCCCGAT,0.129
4,ATCGTGGG,0.0806
5,ATAGGCAC,-0.112
6,AGTTAGCA,0.084
7,ACTATACG,-0.0161
8,AGCGGTAA,0.00823
9,AATAAAGA,0.195
10,AATGCATA,0.0741
11,ACCAGAGG,-0.164
12,ACAATAGG,-0.0595
13,CAAGGTAA,0.0428
14,ATGGATTG,0.0032
15,CTTATCAA,0.256
16,CTCTTATC,0.16
17,AAAATCAG,0.0235
18,AGAGAAGC,-0.0596
19,GGCTGGCA,-0.291
20,GCTCTACA,-0.0616
21,AGTACTAC,0.145
22,ATTCATAC,0.125
23,AACCATCA,0.0353
24,GATTTTAA,0.209
25,ACAACAGG,-0.118

# A second format for some results above:
row | Sequence | PBM E-score
24 | AGTGCGAG | -0.0178
3 | AGCCCGAT | 0.129
12 | ACAATAGG | -0.0595
17 | AAAATCAG | 0.0235

# Retrieved one by one from above:
row,Sequence,PBM E-score
18,ACTGTCTA,0.00817
16,CTCTTATC,0.16
3,ATAAATCG,0.181
1,CGTATCTC,-0.00599

# Following part

row,Sequence,PBM E-score
1,CTAAAAAA,0.11
2,ATGAGTGC,0.0261
3,ATGCAAAT,0.0985
4,ACCGTCTC,0.138
5,CCGTTGAC,-0.164
6,ATGTAAAA,0.0559
7,CCTTTCCC,-0.271
8,AAAGATCA,0.0543
9,ATCAAGGA,0.0737
10,ACCGACCA,0.0873
11,ACACCTAC,0.131
12,AGCGGTTA,-0.157
13,AGGGAGCG,-0.18
14,ATGCCTTC,-0.162
15,CTGGTGTA,-0.184
16,CCATCTCG,-0.0839
17,ACGATTGG,0.0382
18,ATATTCAT,0.114
19,CATACCGG,0.0862
20,ACTGGTTA,-0.0961
21,ACTTTAAC,-0.0413
22,ACAGGCCA,0.0569
23,ATTTTGGC,0.193
24,AGAAGTAG,-0.113
25,ATATCCCA,0.0408

row,Sequence,PBM E-score
1,CAGTTGTA,0.0349
2,CGTCAATC,0.0566
3,ATTTCACC,0.118
4,CAACGTTC,-0.009
5,TACCCCGA,0.00562
6,GTACAAAA,0.0779
7,ACTCAAGG,-0.165
8,ATCGTGTG,0.0714
9,CTGTTGAA,0.184
10,AGGTTGGA,0.0012
11,CTTTCCTA,-0.0978
12,CATAGCTA,-0.103
13,ATGGAGAG,-0.231
14,CGAGGCCA,0.0424
15,GTCGGATA,0.0779
16,ACTATATC,0.109
17,CCCGTGAC,-0.165
18,GGGGACCC,-0.309
19,AGGCGACG,-0.0289
20,AATCTCCT,-0.109
21,CAGGGCGC,0.0228
22,CGCGGAAC,0.135
23,GGCGACAA,-0.0864
24,ACAGCCAA,0.0312
25,TCAGTCAA,-0.153

row,Sequence,PBM E-score
1,GATTGCGC,0.0674
2,AGCGGAGA,0.104
3,ACAAGGGC,-0.275
4,CCCTAAGG,-0.174
5,AGTGTAAG,0.0343
6,GCTAACCA,0.0219
7,AGCCCTAG,-0.0198
8,CGGCTCAA,0.0538
9,TCACCTCA,-0.13
10,TATTGTAA,-0.0662
11,ATTGGCTG,-0.131
12,GGATTCAC,0.0135
13,AGGCCTCC,0.0546
14,GAGCTTAC,0.151
15,CGCCGGGC,-0.0376
16,GGAGGCCC,-0.351
17,AAGTCGCT,-0.0909
18,ATGCTAAT,0.19
19,CATTAAAA,0.165
20,CGTGATGA,0.0624
21,CTTCGAGC,0.0427
22,AAAATCTC,0.061
23,ATTCGCCA,0.0814
24,CTGACCAC,-0.128
25,GCCAAGAC,-0.0614

row,Sequence,PBM E-score
1,GGGGTAGA,-0.0967
2,GCTCTTAA,0.00175
3,CCTGTGAA,-0.0104
4,GTATGGAA,-0.144
5,GATAGTCA,-0.0447
6,AATAGCTA,0.0621
7,CCACCCAG,-0.0547
8,AACTACAC,0.123
9,CCGCCAAA,0.141
10,TACACAAA,0.229
11,GGGCTCCA,-0.211
12,CATATTCC,-0.178
13,CAGGTACA,-0.0611
14,ATCTATAA,0.086
15,AAAGCATA,-0.0199
16,GAACCATC,0.104
17,CACGCGGA,0.189
18,CCCTGACG,-0.0383
19,CCCGGGGC,-0.332
20,ATGTACAC,0.142
21,AACTCAGT,-0.0318
22,GCGGATAA,0.0679
23,GACCAAAA,0.177
24,CTATATCA,0.181
25,AAATTCGG,0.227

row,Sequence,PBM E-score
1,GGTGGACA,-0.111
2,ATAGAGTG,-0.0899
3,CTTGATTA,0.106
4,ATGACCAG,0.00697
5,AGATGAAC,0.177
6,ACGTTCGA,-0.0227
7,AAAATGTA,-0.138
8,CTTTCATA,0.046
9,AAGCCTCC,-0.128
10,GTGACAAC,0.0552
11,CTGTGTAA,0.157
12,TAGGGAAA,-0.014
13,AATCATAT,0.14
14,CAGGATAC,-0.0938
15,GAAAGACC,-0.175
16,CGACTCTC,-0.183
17,ACGGTTCG,0.0536
18,GCTAGAGA,0.0132
19,CCGGCGCC,0.0915
20,AAAATAGG,0.0319
21,GAGATGAA,-0.0368
22,TATCGAGA,0.0385
23,AGAGCAGG,0.0535
24,GGTAGCCA,-0.0237
25,CCCAGGGG,-0.389

row,Sequence,PBM E-score
1,ACAAGACT,-0.0691
2,AAGTTGCG,0.0178
3,AATGTTGC,-0.0914
4,ATAGCAAT,0.154
5,CGGGGTTA,-0.0249
6,GGTTGCGA,0.047
7,AGATTGGC,-0.252
8,AAGGCCGC,0.0997
9,CCCGCTCC,-0.37
10,CAGGCACG,-0.0731
11,GCGTTAGC,0.0751
12,CACTTTCC,0.135
13,ACCCGAAG,-0.0741
14,TGTGTAAA,0.156
15,ACCGTAGT,-0.123
16,ATCATAGG,-0.0111
17,AACAATCA,0.219
18,ATGAATTC,0.15
19,AAACCCAA,-0.0676
20,CAATCACA,0.0376
21,GTCTGGCA,-0.169
22,AACTTAGG,0.0392
23,GACGTTAA,0.245
24,TCAACTAA,0.0767
25,ACGATAGG,-0.167

row,Sequence,PBM E-score
1,AGAGTAAC,-0.086
2,CCATACAA,-0.131
3,GTTCAGGA,-0.0605
4,AAAAATCA,0.124
5,CCGAAAAA,0.152
6,TGTTCAAA,0.0795
7,AGGTGTCA,0.127
8,GGGTGCGA,-0.203
9,CTTAGGAA,0.136
10,GAGACGAC,-0.0482
11,CAAATTAC,-0.0627
12,GTTGTGAA,0.0868
13,ACCAAGTA,0.00548
14,TCCTCTCA,-0.0627
15,GATGGAAA,0.00903
16,ACGGGAAT,-0.153
17,CTATTGTC,-0.145
18,ATTTACTA,0.113
19,GTATATGA,0.118
